The target of this assay is wild-type Pp2a-c (stably transfected in HEK293T) (UniProt P67775). As to the kind of experiment: co-IP.

Amino acid sequences for entries named in this document (tags omitted). A change or cut given only in a name is not applied to a line headed by its entry.
UniProt P67775: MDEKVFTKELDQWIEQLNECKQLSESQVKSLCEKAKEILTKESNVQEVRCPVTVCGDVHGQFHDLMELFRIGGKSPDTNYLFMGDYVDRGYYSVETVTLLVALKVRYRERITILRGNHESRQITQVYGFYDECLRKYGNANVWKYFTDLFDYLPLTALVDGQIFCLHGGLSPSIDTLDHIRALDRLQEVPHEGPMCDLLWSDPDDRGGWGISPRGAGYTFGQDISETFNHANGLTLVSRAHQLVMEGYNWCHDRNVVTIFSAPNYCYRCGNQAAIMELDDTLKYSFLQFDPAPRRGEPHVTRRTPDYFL
UniProt Q01105: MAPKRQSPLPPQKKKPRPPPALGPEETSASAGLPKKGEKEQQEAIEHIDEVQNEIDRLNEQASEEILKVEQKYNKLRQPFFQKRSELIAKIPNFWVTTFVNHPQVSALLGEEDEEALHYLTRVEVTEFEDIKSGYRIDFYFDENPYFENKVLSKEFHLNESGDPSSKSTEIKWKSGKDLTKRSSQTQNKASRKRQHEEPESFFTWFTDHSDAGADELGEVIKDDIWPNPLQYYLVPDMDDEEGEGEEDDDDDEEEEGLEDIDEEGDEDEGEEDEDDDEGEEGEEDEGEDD

No constants are given. Whether binding was seen depends on the method and setting. Binding seen in cells or lysates may run through a third protein. A result given as binding can be weak or reduced; the word gives no strength.

“SET, endogenous in HEK293T cells (from UniProt Q01105 1-290)”: the binding entry is “binds”.

These data come from article doi:10.1101/2023.01.15.524091.
